Data: the supplement of paper PMC12819154, “High-throughput peptide-centric local stability assay extends protein–ligand identification to membrane proteins, tissues and bacteria” (Nature Structural & Molecular Biology, 2025)
The other results are listed elsewhere or left out. Most entries show no effect beyond the scatter of the controls.

By UniProt entry, the sequences of proteins in these tests, tags left out. Where a name states a change or a piece, a line headed by the entry shows the natural chain unless it says otherwise.
UniProt Q8K212, whole entry: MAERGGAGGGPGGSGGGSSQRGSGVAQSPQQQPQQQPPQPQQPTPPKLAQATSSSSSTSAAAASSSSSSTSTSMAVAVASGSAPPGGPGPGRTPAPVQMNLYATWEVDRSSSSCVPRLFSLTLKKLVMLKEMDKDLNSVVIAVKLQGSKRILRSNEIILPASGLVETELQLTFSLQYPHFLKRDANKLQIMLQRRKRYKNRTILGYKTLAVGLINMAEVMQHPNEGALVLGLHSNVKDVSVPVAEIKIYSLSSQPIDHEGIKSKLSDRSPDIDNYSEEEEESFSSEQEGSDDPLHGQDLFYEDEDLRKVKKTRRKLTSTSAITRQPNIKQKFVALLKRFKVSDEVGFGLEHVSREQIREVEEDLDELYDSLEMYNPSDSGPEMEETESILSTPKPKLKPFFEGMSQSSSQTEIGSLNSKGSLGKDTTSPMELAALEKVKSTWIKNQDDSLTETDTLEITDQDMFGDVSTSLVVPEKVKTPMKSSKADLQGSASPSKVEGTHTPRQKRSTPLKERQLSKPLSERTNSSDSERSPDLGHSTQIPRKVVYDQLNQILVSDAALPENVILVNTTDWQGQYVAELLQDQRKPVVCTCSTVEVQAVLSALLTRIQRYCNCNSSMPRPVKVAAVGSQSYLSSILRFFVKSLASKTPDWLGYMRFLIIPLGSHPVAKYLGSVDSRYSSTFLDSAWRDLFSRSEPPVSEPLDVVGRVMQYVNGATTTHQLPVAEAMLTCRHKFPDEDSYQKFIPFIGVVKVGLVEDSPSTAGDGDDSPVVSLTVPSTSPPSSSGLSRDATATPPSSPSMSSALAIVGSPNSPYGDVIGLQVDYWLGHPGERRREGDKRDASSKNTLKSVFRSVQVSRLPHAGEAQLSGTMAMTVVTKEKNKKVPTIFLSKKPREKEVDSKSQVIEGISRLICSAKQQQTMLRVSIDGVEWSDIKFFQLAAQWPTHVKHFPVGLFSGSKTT
UniProt Q8CHP6: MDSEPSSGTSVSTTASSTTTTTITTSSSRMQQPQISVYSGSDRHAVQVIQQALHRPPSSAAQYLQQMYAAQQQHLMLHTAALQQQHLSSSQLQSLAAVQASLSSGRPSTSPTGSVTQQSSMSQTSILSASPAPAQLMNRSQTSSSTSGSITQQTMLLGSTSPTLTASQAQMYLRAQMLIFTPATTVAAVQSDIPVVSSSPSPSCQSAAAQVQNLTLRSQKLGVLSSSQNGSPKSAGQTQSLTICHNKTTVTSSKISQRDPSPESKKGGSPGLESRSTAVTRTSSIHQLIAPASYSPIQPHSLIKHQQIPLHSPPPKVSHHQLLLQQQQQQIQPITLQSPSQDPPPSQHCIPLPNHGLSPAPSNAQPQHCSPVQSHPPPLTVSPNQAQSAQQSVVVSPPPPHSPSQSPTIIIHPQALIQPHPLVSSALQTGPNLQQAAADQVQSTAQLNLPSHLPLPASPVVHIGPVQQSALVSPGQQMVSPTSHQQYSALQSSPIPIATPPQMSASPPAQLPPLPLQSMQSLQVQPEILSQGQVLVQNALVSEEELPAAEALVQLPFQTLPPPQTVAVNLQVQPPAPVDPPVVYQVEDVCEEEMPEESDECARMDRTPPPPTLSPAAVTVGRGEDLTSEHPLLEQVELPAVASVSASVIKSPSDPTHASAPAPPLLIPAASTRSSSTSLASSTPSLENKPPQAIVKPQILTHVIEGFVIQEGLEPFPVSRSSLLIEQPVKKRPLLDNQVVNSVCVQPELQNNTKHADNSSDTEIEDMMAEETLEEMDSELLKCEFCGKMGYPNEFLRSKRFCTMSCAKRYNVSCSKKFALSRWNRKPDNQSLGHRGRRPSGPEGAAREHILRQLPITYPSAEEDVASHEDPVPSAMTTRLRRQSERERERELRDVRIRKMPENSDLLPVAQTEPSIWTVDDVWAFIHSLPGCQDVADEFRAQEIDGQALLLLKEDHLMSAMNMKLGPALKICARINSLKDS
UniProt Q8K1N2: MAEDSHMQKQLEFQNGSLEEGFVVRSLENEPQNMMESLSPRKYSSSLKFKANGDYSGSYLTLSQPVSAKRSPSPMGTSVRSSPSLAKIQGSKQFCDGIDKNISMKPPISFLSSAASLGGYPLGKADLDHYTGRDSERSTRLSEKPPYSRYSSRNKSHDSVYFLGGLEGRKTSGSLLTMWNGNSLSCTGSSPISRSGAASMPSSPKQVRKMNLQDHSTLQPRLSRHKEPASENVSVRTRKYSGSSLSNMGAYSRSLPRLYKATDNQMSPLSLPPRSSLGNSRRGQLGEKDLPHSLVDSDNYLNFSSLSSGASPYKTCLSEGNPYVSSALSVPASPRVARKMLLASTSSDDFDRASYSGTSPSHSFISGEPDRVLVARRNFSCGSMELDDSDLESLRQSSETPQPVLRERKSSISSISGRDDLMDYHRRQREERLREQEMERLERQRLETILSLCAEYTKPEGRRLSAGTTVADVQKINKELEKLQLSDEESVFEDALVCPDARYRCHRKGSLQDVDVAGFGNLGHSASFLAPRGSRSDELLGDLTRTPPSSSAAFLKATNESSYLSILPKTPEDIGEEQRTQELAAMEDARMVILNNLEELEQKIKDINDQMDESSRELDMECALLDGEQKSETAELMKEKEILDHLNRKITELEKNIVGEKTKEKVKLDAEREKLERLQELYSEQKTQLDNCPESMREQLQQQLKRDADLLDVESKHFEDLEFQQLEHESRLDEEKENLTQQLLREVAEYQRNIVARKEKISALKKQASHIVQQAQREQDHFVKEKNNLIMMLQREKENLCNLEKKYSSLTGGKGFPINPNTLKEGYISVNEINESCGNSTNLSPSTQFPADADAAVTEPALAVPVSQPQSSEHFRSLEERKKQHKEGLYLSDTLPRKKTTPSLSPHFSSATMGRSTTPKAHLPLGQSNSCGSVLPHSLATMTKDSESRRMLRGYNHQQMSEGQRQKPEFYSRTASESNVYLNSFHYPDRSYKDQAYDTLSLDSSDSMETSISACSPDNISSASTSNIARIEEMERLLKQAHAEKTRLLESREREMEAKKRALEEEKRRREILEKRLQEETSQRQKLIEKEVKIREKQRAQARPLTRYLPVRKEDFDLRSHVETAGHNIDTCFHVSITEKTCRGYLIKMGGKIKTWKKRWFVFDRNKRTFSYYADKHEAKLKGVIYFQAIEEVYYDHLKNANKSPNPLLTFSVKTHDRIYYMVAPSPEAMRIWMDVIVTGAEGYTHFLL
UniProt Q8K2I1, whole entry: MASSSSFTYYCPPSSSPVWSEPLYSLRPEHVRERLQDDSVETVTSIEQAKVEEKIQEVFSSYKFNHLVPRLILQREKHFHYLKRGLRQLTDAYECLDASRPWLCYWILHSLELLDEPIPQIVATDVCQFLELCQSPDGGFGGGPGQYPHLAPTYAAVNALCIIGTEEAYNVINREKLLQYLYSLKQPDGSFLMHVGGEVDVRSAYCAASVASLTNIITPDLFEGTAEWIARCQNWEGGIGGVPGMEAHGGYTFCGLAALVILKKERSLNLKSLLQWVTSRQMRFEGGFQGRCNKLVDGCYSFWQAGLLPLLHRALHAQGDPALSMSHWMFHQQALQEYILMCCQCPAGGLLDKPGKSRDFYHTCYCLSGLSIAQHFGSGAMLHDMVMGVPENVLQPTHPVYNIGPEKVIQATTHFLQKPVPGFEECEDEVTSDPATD
UniProt Q8K3C3: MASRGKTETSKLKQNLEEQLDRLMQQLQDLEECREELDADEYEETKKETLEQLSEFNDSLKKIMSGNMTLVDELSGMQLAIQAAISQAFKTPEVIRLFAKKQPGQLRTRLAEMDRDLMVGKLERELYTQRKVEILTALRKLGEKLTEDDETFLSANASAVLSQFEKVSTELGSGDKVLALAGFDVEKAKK
UniProt Q8VBZ3: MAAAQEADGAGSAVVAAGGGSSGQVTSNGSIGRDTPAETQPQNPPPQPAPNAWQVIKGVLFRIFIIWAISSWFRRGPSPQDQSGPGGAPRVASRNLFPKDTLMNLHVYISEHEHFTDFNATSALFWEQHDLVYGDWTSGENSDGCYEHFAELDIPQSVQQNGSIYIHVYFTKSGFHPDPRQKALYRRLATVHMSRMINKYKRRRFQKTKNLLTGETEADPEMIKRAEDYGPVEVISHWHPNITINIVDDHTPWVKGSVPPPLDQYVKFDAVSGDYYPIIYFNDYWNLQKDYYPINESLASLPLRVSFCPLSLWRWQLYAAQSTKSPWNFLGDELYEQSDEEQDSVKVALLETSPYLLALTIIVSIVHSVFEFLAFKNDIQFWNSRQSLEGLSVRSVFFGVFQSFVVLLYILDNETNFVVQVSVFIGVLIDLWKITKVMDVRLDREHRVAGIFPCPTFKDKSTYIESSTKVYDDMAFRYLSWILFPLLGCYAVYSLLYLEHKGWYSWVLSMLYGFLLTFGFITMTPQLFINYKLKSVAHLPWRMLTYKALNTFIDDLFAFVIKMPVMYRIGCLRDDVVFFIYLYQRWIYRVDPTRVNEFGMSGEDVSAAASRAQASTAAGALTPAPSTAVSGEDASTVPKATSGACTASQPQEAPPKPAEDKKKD
UniProt Q8R1J1: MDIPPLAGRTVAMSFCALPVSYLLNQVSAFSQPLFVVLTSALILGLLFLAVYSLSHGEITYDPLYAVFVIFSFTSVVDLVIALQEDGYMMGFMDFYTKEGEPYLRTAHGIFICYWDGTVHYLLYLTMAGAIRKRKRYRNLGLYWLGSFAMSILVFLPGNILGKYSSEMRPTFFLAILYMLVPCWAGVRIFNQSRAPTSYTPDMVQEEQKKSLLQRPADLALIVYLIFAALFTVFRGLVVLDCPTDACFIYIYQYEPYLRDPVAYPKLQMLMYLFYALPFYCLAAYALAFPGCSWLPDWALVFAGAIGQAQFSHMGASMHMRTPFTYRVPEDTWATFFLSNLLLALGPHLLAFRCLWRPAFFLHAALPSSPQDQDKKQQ
UniProt Q8K2T4: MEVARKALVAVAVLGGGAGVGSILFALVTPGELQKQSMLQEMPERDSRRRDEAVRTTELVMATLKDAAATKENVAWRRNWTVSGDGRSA
UniProt Q8K4K6: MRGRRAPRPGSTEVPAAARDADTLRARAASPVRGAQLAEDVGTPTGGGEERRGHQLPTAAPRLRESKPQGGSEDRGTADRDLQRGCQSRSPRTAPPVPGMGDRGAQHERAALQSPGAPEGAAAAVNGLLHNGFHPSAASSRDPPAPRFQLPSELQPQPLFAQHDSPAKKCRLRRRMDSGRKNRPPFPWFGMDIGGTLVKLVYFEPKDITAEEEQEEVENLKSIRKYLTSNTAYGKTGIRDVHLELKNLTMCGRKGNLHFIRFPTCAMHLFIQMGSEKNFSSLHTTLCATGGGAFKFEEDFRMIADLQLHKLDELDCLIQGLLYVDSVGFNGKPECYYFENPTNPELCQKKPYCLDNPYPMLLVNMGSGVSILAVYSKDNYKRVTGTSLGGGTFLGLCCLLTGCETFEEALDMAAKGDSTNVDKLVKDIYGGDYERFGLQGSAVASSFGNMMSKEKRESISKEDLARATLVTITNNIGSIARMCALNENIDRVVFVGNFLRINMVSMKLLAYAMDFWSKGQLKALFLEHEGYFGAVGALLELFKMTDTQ
UniProt Q8K2K6: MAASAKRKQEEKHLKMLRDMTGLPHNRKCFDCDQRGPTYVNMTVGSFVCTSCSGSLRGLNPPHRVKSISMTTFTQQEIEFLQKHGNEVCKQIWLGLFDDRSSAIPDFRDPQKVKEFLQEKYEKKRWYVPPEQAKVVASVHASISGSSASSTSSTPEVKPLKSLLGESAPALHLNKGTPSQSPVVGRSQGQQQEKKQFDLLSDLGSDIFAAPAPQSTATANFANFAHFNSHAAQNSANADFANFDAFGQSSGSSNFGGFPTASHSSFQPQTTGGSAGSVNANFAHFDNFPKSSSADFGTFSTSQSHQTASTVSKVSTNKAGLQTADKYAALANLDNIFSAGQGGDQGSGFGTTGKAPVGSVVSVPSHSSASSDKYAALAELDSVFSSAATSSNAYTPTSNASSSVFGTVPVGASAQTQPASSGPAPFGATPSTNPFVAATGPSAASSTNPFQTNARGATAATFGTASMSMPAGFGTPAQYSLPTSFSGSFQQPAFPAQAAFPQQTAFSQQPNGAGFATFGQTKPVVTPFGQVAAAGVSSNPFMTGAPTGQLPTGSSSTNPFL
UniProt Q8K0Y7: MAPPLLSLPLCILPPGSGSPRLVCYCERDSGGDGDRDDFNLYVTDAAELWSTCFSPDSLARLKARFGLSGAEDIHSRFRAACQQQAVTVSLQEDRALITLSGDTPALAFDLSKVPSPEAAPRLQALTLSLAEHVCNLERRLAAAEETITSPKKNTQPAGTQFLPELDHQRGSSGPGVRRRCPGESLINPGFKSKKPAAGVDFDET
UniProt Q8QZY6: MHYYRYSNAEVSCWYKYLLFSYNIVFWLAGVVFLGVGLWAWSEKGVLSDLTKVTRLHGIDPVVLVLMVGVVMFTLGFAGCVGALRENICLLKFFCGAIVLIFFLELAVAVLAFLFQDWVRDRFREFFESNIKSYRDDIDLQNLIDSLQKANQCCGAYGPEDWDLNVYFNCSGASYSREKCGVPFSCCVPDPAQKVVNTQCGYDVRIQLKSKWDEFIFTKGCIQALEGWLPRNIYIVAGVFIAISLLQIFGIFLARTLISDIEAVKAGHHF

Compound: CN[C@@H]1C[C@H]2O[C@@](C)([C@@H]1OC)n1c3ccccc3c3c4c(c5c6ccccc6n2c5c31)C(=O)NC4 [staurosporine]
Experiment: log2 fold change of pooled soluble protein (PISA), ligand vs vehicle (log2 ratio); higher = more thermally stabilized
Conditions: ligand concentration: 20 uM; assay format: PISA pool 52.9/55.5/58.6 C

Row | Target | log2 fold change of pooled soluble protein
1 | UniProt Q8K212 | 0.0153
2 | UniProt Q8K1M6 | 0.253
3 | UniProt Q8CHP6 | -0.21
4 | UniProt Q8CJ19 | -0.267
5 | UniProt Q8CHP5 | 0.00292
6 | UniProt Q8K1N2 | -0.0476
7 | UniProt Q8K2I1 | 0.213
8 | UniProt Q8K310 | -0.00429
9 | UniProt Q8R143 | -0.13
10 | UniProt Q8R332 | -0.0166
11 | UniProt Q8K2H1 | 0.208
12 | UniProt Q8R0J7 | 0.168
13 | UniProt Q8K2Q9 | -0.00798
14 | UniProt Q8CHK3 | -0.19
15 | UniProt Q8QZY1 | -0.108
16 | UniProt Q8K3C3 | -0.126
17 | UniProt Q8K010 | -0.0557
18 | UniProt Q8R409 | 0.016
19 | UniProt Q8VBZ3 | 0.00101

Reformatted in CSV form: entries from further up.
Row,Target,log2 fold change of pooled soluble protein
5,UniProt Q8CHP5,0.00292
6,UniProt Q8K1N2,-0.0476
7,UniProt Q8K2I1,0.213
8,UniProt Q8K310,-0.00429
9,UniProt Q8R143,-0.13
10,UniProt Q8R332,-0.0166
11,UniProt Q8K2H1,0.208
12,UniProt Q8R0J7,0.168

Later entries

Row | Target | log2 fold change of pooled soluble protein
20 | UniProt Q8R1J1 | -0.106
21 | UniProt Q8R1Z9 | 0.16
22 | UniProt Q8R3C1 | 0.0569
23 | UniProt Q8K2T4 | 0.223
24 | UniProt Q8R1Q8 | 0.0452
25 | UniProt Q8R5H6 | -0.0553
26 | UniProt Q8K2C6 | -0.173
27 | UniProt Q8R4X3 | 0.527
28 | UniProt Q8K4K6 | 0.289
29 | UniProt Q8K2K6 | -0.0309
30 | UniProt Q8K0Y7 | -0.00222
31 | UniProt Q8R0F9 | 0.0497
32 | UniProt Q8K4P0 | 0.0227
33 | UniProt Q8K274 | 0.0554
34 | UniProt Q8CHR6 | -0.0483
35 | UniProt Q8R015 | -0.0286
36 | UniProt Q8QZY6 | 0.277
37 | UniProt Q8K0D5 | 0.068
